Article PMC7319344
These are yes or no findings as the source states them, for the method shown. In cells and extracts the contact can be indirect. Some results given as binding are weak or reduced against the parent protein; the word gives no strength. Tags and fused reporters may be left off the sequences shown.

Target: T1, Grx3-FLAG (C. albicans) (UniProt Q5AF81)
T1 sequence: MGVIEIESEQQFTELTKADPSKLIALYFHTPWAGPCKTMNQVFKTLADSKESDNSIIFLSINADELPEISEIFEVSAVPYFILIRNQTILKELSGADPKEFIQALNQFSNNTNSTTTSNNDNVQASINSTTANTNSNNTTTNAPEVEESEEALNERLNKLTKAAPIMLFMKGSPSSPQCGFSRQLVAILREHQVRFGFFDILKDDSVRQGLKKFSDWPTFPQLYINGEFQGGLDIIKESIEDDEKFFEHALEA
Test: co-IP; lysates of cells grown in YPM with or without 500 uM BPS for 6hr; Grx3-FLAG precipitated with anti-FLAG M2 affinity gel at 4°C for 2hr, washed five times with lysis buffer, western blot for MYC

binding: binds
B1: Sfu1-Myc (MAL2-driven Sfu1-13xMYC) (protein, UniProt Q5AP95 1-517)
chain: MPTSPTESIPNSSTKEQPILPKMLPTAKSPHTTPAQSPQNSDHHHHHQQTPPQPTDGQQCSNCGTTKTPLWRRAPDGTLICNACGLYYRSNNTHRPVNLKRPPNTIAVVKEEEGSCKGDGRCNGTGGSAACKGCPAYNNRIVAKKALEKSPKNDSSRAPIDKSLKRSTSTDATTEDESSLAIACFNCGTTITPLWRRDDAGNTICNACGLFYRLHGSHRPIKMKRPTIKRRKRNVSDKKSKDEVQMHSSDQSPIVASDPISPTPHNNENNNNVTNITTTTKTPTRSPHYYQPPPQYPYQHHPINSTTSSAINRLPPISYQSPYQTAPLSHSPMQSSSSYSPGASSVIPSSYYPPYSGSGRIPNGPGPVPGPPPPPPPTQSQPHHQQITTSPTSQSYGSLRAPIHITKRGYTPENIRLPSIQLTSSTSSNSETKLPPITNHSEKCCSNCAGPKSLAPMAIDFTASYRFNNIDSQTKLTKEDQNDSEGVSRDNDTRDENKPIKQEEHRSALSIGKLLNG
